# Source: US20100093726A1 (Giuseppe CAMPIANI, priority 2007, published 2010)
# What was measured:
# P. falciparum W2 = test: microbe, parasite or virus in culture; assay type: cell-based; conditions: Plasmodium falciparum; P. falciparum W2, CQ-R clone
# Description: (§1) Some of the synthesized compounds were tested in vitro against two different strains of P. falciparum, namely 3D7, NF54 and D10 (CQ-S strain) and K1 and W2 (CQ-R strain).
# P. falciparum K1 = test: microbe, parasite or virus in culture; assay type: cell-based; conditions: Plasmodium falciparum; P. falciparum K1, CQ-R clone
# Description: as §1
# [1] = system: Candida krusei ATCC ® 6258; test: Antifungal susceptibility (CLSI broth dilution), Candida krusei; assay type: cell-based; conditions: CLSI protocol, quality control strain
# Excerpt: (1) National Committee for Clinical Laboratory Standards. (2002). Reference method for broth dilution antifungal susceptibility testing of yeasts—Second Edition: Approved Standard, M27-A2. NCCLS, Wayne, Pa.; and
# (2) National Committee for Clinical Laboratory Standards. Reference method for broth dilution antifungal susceptibility testing of filamentous fungi: Approved Standard, M38-A. 2002; NCCLS, Wayne, Pa.
# [2] = system: β-hematin formation (hemin); test: BHIA (β-hematin inhibitory activity) assay; assay type: biochemical; conditions: hemin in dimethyl sulfoxide-acetate buffer at pH 5.0, 37° C., 18 h
# P. falciparum D10 = test: In vitro antiplasmodial activity, P. falciparum D10 (CQ-S clone); assay type: cell-based; conditions: Plasmodium falciparum
# Description: as §1
smiles,measurement,setting,value
"Clc1ccccc1C(c1ccccc1)(c1ccccc1)n1ccnc1 [CLT, clotrimazole, reference compound]",IC50,P. falciparum W2,490 nM
same,IC50,P. falciparum K1,250 nM
same,"antifungal susceptibility value (MIC), Candida krusei ATCC 6258",[1],2
same,β-hematin inhibitory activity IC50,[2],2.50 Molar equivalents of compound relative to hemin
same,IC50,P. falciparum D10,550 nM
